# Data taken from PubChem BioAssay AID743255 (National Center for Advancing Translational Sciences (NCATS), 2014).
# Amino acid sequences for entries named in this document (tags omitted). A change or cut given only in a name is not applied to a line headed by its entry.
# UniProt O94782: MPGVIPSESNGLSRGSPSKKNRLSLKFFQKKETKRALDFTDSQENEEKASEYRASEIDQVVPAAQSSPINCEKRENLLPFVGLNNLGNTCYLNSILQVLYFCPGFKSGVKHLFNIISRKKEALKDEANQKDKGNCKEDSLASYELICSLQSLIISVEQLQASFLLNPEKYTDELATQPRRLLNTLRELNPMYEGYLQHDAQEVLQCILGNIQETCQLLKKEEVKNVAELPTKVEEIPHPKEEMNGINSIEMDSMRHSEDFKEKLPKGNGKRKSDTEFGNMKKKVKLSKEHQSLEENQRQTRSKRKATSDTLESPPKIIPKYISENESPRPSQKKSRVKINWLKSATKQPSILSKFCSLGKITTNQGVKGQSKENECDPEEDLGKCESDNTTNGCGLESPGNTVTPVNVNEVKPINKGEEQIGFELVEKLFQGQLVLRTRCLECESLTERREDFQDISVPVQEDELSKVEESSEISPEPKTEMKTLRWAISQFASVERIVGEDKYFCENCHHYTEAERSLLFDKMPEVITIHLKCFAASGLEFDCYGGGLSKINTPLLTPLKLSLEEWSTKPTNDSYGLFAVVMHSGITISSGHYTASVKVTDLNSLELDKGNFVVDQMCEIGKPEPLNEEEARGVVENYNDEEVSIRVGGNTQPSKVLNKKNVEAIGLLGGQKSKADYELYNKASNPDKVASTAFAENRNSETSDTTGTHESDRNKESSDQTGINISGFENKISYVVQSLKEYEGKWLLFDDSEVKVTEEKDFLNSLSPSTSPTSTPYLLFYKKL
# About 910 (0.23%) of roughly 390,000 compounds were called active. Inconclusive results, whose numbers are uncertain, are shown with a selection of clear calls. The call rests on the fitted dose curve; in most records, active means well fitted inhibition curve with a large enough effect; inconclusive means small, poorly fitted or top-dose-only effect; inactive means no such curve, though single readings can be large or run the other way. A potency beside an inconclusive call is a rough fit, not a confirmed value.
# Biological target: Ubiquitin carboxyl-terminal hydrolase 1 (Homo sapiens) (UniProt O94782)
# Test: Inhibitors of USP1/UAF1: Primary Screen; further: nearly all actives have a fitted effect of over 60% in size
# Conditions: recombinant USP1/UAF1, Ub-Rhodamine cleavage fluorescence; activity change, negative = inhibition: at 57.1 µM (top of the series)
# Summary of the method: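 Step one: compound is pinned into 1nM USP1/UAF1 in HEPES pH 7.8 buffer with TCEP. Step two: 15 min room-temperature incubation. Step three: Ub-Rho (150nM final) starts cleavage, tracked by fluorescence over six one-minute reads.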
# On the % scale 0 is the no-effect control and ±100 the full control effect; potency means the concentration at half of the fitted maximal effect.
Structure (SMILES),Potency,"activity change, negative = inhibition"
C[C@H]1NS(=O)(=O)c2ccc(Br)cc2O[C@H]1c1ccccc1,"inconclusive: 44.7 µM [inhibitor, partial curve, poor fit]",
CCc1ccccc1C1=CC(=O)C[C@H](c2ccc(OC)cc2)C1,"inconclusive: 50.1 µM [inhibitor, partial curve, poor fit]",
CNC(=O)c1cnc2sc(N3CCCCCC3)nn2c1=O,,inactive: -26.7%
O=[N+]([O-])c1cc(S(=O)(=O)Nc2ccccc2)ccc1Nc1ccccc1,"inconclusive: 44.7 µM [inhibitor, single point]",
CC(NS(=O)(=O)c1ccc(Cl)cc1)C(=O)N1CCOCC1 (stereo not drawn),"inconclusive: 1.58 µM [inhibitor, partial curve]",
Cc1cn(CC(=O)NCC(C)c2ccccc2)c(=O)[nH]c1=O (stereo not drawn),"inconclusive: 0.282 µM [inhibitor, full curve]",
COC(=O)c1ccc(NC(=O)c2ccc3nsnc3c2)cc1,"inconclusive: 31.6 µM [inhibitor, single point]",
CN(CCc1ccccc1)C(=O)c1cccc(NC(=O)Cc2cccc(NC(=O)C3CCCN(C(=O)C4CC4)C3)c2)c1 (stereo not drawn),"inconclusive: 70.8 µM [inhibitor, partial curve, poor fit]",
COC(=O)c1ccc(C2NC(=O)c3c(sc(C)c3C)N2)cc1 (stereo not drawn),,inactive: -11%
O=C(COC(=O)c1ccc([N+](=O)[O-])s1)Nc1ccc(F)cc1,"inconclusive: 35.5 µM [inhibitor, single point]",
O=C(C1CCCN1S(=O)(=O)c1cccc2cccnc12)N1CCN(c2ccccc2)CC1 (stereo not drawn),"inconclusive: 15.8 µM [inhibitor, partial curve]",
O=C(NCCn1cc(SCc2ccc(F)cc2)c2ccccc21)c1cccs1,,inactive: -15.5%
O=C1C2CCCN2C(c2ccc(Br)cc2)N1c1ccc(F)cc1 (stereo not drawn),"inconclusive: 50.1 µM [inhibitor, partial curve, poor fit]",
Cc1ccc(Cn2ccc(=O)c(OCc3c(Cl)cccc3Cl)c2C)cc1,,inconclusive: -29.1% [inhibitor]
CC(C)Nc1nc2c(-c3cccc(Br)c3)nnn2c2ccccc12,"inconclusive: 12.6 µM [inhibitor, partial curve, poor fit]",
CC(=O)c1ccc(NS(=O)(=O)c2ccccc2)cc1,,inactive: -9.54%
O=C(CSc1nccn1Cc1ccccc1)NCc1ccccc1,"inconclusive: 5.01 µM [inhibitor, partial curve]",
CC(=O)Nc1ccc(-c2csc(NNC(=O)c3ccc(C)cc3)n2)cc1,,inactive: -24%
O=C1NCC(Nc2ccc(Br)cc2)C(=O)N1 (stereo not drawn),"inconclusive: 39.8 µM [inhibitor, partial curve, poor fit]",
CC(NCc1ccncc1)C12CC3CC(CC(C3)C1)C2 (stereo not drawn),"inconclusive: 35.5 µM [inhibitor, single point]",
C[C@H](CO)N1C[C@H](C)[C@@H](CN(C)C(=O)Nc2ccccc2)Oc2ncc(-c3ccc(C#N)cc3)cc2C1=O,"inconclusive: 0.316 µM [inhibitor, full curve, poor fit]",
COc1ccc(-c2onc3ccc(C(=O)/C=C/N(C)C)cc23)cc1,"inconclusive: 39.8 µM [inhibitor, partial curve]",
Cc1ccc(O)c(NC(=S)NC(=O)c2ccccc2Cl)c1,,inactive: -11%

Structure (SMILES),Potency,"activity change, negative = inhibition"
O=C(O)c1c2c(nc3ccc(S(=O)(=O)N4CCC(C(=O)N5CCCCC5)CC4)cc13)CCCC2,"inconclusive: 44.7 µM [inhibitor, partial curve, poor fit]",
COc1ccc(CCn2c(N)c(C(=O)NCc3ccco3)c3nc4ccccc4nc32)cc1OC,"inconclusive: 0.708 µM [inhibitor, full curve, poor fit]",
O=C(OCn1ncc(Cl)c(Cl)c1=O)c1cccc(C(F)(F)F)c1,"inconclusive: 44.7 µM [inhibitor, partial curve]",
Cc1ccc(CNC(=O)c2ccc3c(O)c(S(=O)(=O)c4ccc(Cl)cc4)c(=O)[nH]c3c2)cc1,"inconclusive: 39.8 µM [inhibitor, single point]",
CCCCC(CC)CNC(=O)CC1Nc2c3ccccc3nc(=S)n2C1=O (stereo not drawn),"inconclusive: 5.62 µM [inhibitor, partial curve, poor fit]",
COc1ccc2c(c1)C(=NNC(=O)c1ccccn1)c1cc(OC)ccc1-2,"inconclusive: 12.6 µM [inhibitor, partial curve]",
CCc1ccccc1NC(=O)CSc1nc2c(oc3ccccc32)c(=O)n1C,"inconclusive: 56.2 µM [inhibitor, partial curve, poor fit]",
COc1cc2c(cc1OC)C(c1cc([N+](=O)[O-])ccc1O)NCC2 (stereo not drawn),,inactive: -27.6%
COc1ccc(C(CC(=O)N2CCOCC2)c2c(O)cc(OC)cc2OC)cc1 (stereo not drawn),"inconclusive: 44.7 µM [inhibitor, partial curve]",
CCOC(=O)c1c(S(=O)(=O)N2CCCC(C(=O)NCc3ccccc3OC)C2)c(C)n(C)c1C (stereo not drawn),,inactive: -18.5%
CCc1nc(SC)ncc1C(=O)N1CCN(c2cc(C)ccc2C)CC1,,inactive: -17.2%
O=C(O)c1cc([N+](=O)[O-])cc2ccccc12,,inactive: -10.5%
Cc1nn2c(N3CCN(c4ccccn4)CC3)cc(C(C)C)nc2c1-c1ccccc1,"inconclusive: 7.08 µM [inhibitor, partial curve]",
Cc1ccccc1NC(=S)C1=C(O)c2sccc2N(C)S1(=O)=O,,inactive: -24.5%
COC(=O)CCCC1=CC2=CC(=O)C(C)(OC(=O)c3cccs3)C(=O)C2=CN1CCN1CCOCC1 (stereo not drawn),"inconclusive: 39.8 µM [inhibitor, partial curve]",
CCCOc1ccc(C2CC(=O)Nc3c2c(=O)n(C)c(=O)n3C)cc1OC (stereo not drawn),"inconclusive: 112 µM [inhibitor, partial curve]",
COc1ccc(NC(=O)Cn2cc(S(=O)(=O)Cc3ccccc3)c3ccccc32)c(OC)c1,,inactive: -16.5%
COCCNC(=O)CN1C(=O)c2cccnc2Oc2ccc(Cl)cc21,,inactive: 0.437%
O=C(CCN1C(=O)/C(=C/c2ccc3c(c2)OCO3)SC1=S)NNC(=O)c1cccnc1,"inconclusive: 50.1 µM [inhibitor, single point]",
CC1CN(C(=O)c2cc([N+](=O)[O-])cc([N+](=O)[O-])c2)CC(C)O1 (stereo not drawn),,inactive: -15.4%
COc1cc(C)c(Br)cc1S(=O)(=O)NCCCN1CCOCC1,"inconclusive: 35.5 µM [inhibitor, partial curve]",
Cc1ccc([C@H]2C[C@H](n3cc(-c4ccc(F)cc4)nn3)[C@@H](O)CN2CC2CCCCC2)cc1,"inconclusive: 50.1 µM [inhibitor, partial curve, poor fit]",
COC(=O)c1cn[nH]c1N,,inactive: -18%

# A portion of the results above, for reference:
Structure (SMILES),Potency,"activity change, negative = inhibition"
CCCCC(CC)CNC(=O)CC1Nc2c3ccccc3nc(=S)n2C1=O (stereo not drawn),"inconclusive: 5.62 µM [inhibitor, partial curve, poor fit]",
COc1ccc2c(c1)C(=NNC(=O)c1ccccn1)c1cc(OC)ccc1-2,"inconclusive: 12.6 µM [inhibitor, partial curve]",
CCc1ccccc1NC(=O)CSc1nc2c(oc3ccccc32)c(=O)n1C,"inconclusive: 56.2 µM [inhibitor, partial curve, poor fit]",
COc1cc2c(cc1OC)C(c1cc([N+](=O)[O-])ccc1O)NCC2 (stereo not drawn),,inactive: -27.6%
COc1ccc(C(CC(=O)N2CCOCC2)c2c(O)cc(OC)cc2OC)cc1 (stereo not drawn),"inconclusive: 44.7 µM [inhibitor, partial curve]",
CCOC(=O)c1c(S(=O)(=O)N2CCCC(C(=O)NCc3ccccc3OC)C2)c(C)n(C)c1C (stereo not drawn),,inactive: -18.5%
CCc1nc(SC)ncc1C(=O)N1CCN(c2cc(C)ccc2C)CC1,,inactive: -17.2%
O=C(O)c1cc([N+](=O)[O-])cc2ccccc12,,inactive: -10.5%
Cc1nn2c(N3CCN(c4ccccn4)CC3)cc(C(C)C)nc2c1-c1ccccc1,"inconclusive: 7.08 µM [inhibitor, partial curve]",
Cc1ccccc1NC(=S)C1=C(O)c2sccc2N(C)S1(=O)=O,,inactive: -24.5%
COC(=O)CCCC1=CC2=CC(=O)C(C)(OC(=O)c3cccs3)C(=O)C2=CN1CCN1CCOCC1 (stereo not drawn),"inconclusive: 39.8 µM [inhibitor, partial curve]",
CCCOc1ccc(C2CC(=O)Nc3c2c(=O)n(C)c(=O)n3C)cc1OC (stereo not drawn),"inconclusive: 112 µM [inhibitor, partial curve]",
COc1ccc(NC(=O)Cn2cc(S(=O)(=O)Cc3ccccc3)c3ccccc32)c(OC)c1,,inactive: -16.5%
COCCNC(=O)CN1C(=O)c2cccnc2Oc2ccc(Cl)cc21,,inactive: 0.437%
O=C(CCN1C(=O)/C(=C/c2ccc3c(c2)OCO3)SC1=S)NNC(=O)c1cccnc1,"inconclusive: 50.1 µM [inhibitor, single point]",
CC1CN(C(=O)c2cc([N+](=O)[O-])cc([N+](=O)[O-])c2)CC(C)O1 (stereo not drawn),,inactive: -15.4%
COc1cc(C)c(Br)cc1S(=O)(=O)NCCCN1CCOCC1,"inconclusive: 35.5 µM [inhibitor, partial curve]",
Cc1ccc([C@H]2C[C@H](n3cc(-c4ccc(F)cc4)nn3)[C@@H](O)CN2CC2CCCCC2)cc1,"inconclusive: 50.1 µM [inhibitor, partial curve, poor fit]",

# (more compounds)

Structure (SMILES),Potency,"activity change, negative = inhibition"
Cc1cccc(NC(=O)c2oc3ccccc3c2NC(=O)Cc2coc3ccc(C(C)C)cc23)c1,,inactive: 0.121%
NC1=NC(=O)C(Cc2ccc(F)cc2)S1 (stereo not drawn),,inactive: -19.5%
Cc1ccc(C)c(C2=NNC(=NCc3ccccc3)SC2)c1,,inactive: -13.9%
Cc1ccc(NC(=O)CSc2nc3ccccc3c(=O)n2CCCN2CCCCC2)cc1Cl,,inactive: -4.03%
O=C(NCc1ccccc1)C(=O)Nc1c2c(nn1-c1ccccc1)CSC2,"inconclusive: 7.94 µM [inhibitor, full curve, poor fit]",
O=C(Nc1cccc(F)c1)N1CC=C(n2c(=O)[nH]c3ccccc32)CC1,,inactive: -23.4%
COc1ccccc1NS(=O)(=O)c1cccc(-n2c(O)c(C=Nc3ccccc3C(=O)O)c3ccccc3c2=O)c1,"inconclusive: 44.7 µM [inhibitor, partial curve, poor fit]",
C[C@H](CO)N1C[C@H](C)[C@@H](CN(C)S(C)(=O)=O)Oc2c(NC(=O)Cc3ccccc3)cccc2C1=O,"inconclusive: 50.1 µM [inhibitor, partial curve, poor fit]",
COc1ccccc1/C=N/N1CCN(c2ccc(Cl)cc2)CC1,"inconclusive: 44.7 µM [inhibitor, partial curve]",
COc1ccc(OCCNc2cc(N3CCOCC3)ccc2[N+](=O)[O-])cc1,,inactive: -11.1%
O=C(Nc1sc2c(c1C(=O)NCC1CCCO1)CCCC2)c1cc(=O)c2ccccc2o1 (stereo not drawn),"inconclusive: 7.08 µM [inhibitor, partial curve, poor fit]",
COc1ccc2cc3[n+](cc2c1OC)CCc1cc2c(cc1-3)OCO2,inactive,
COc1cc(N2CCCC2)c(OC)cc1/C=C(/C#N)c1ccc(F)cc1,"inconclusive: 35.5 µM [inhibitor, partial curve]",
CC(C)c1nnc(SCC(=O)N2CCc3ccccc32)n1N,"inconclusive: 6.31 µM [inhibitor, full curve, poor fit]",
O=C(NNC(=O)C1CC1c1ccccc1)c1ccccc1[N+](=O)[O-] (stereo not drawn),,inactive: -9.22%
CC1CCCC(NC(=O)CCN2C(=O)COc3ccccc32)C1C (stereo not drawn),,inconclusive: -12.5% [inhibitor]
N#Cc1ccccc1S(=O)(=O)N1CCN(C(=O)c2cn(-c3ccccc3)nc2-c2cccnc2)CC1,,inactive: -27.5%
CC(C)NC(=O)CN1C(=O)CCn2nc(-c3cn(C)c4ccccc34)cc21,"inconclusive: 70.8 µM [inhibitor, partial curve, poor fit]",
COc1ccc(-c2cc3ccc(OCc4nn[nH]n4)cc3oc2=O)cc1,"inconclusive: 44.7 µM [inhibitor, partial curve]",
Cc1ccc2nc(NC(=O)CSc3nccn3Cc3ccc(F)cc3)sc2c1,"inconclusive: 50.1 µM [inhibitor, partial curve, poor fit]",
Nc1sc(-c2ccccc2)cc1C(=O)N/N=C/c1ccc(Cl)cc1,,inactive: -24.6%
COc1cccc(-c2nnc(NC(=O)C(C)C)o2)c1,"inconclusive: 35.5 µM [inhibitor, single point]",
